Results reported in patent US7303876B2 (Applera Corporation, priority 2000, dated 2007).

System: Calf thymus genomic DNA
Assay: Reversibility of surfactant-nucleic acid precipitate in chaotrope solutions
Type: physicochemical
Parameters: key: R - DNA precipitate formed in 1.6% cationic surfactant, dissolved after addition of chaotropic solution, but surfactant precipitate did not dissolve; IR - DNA precipitate did not dissolve
Settings: 1.6% surfactant, 50 mM MES pH 6.0

Row | SMILES | whether the DNA precipitate dissolved after addition of chaotropic solution (5M GuHCl) | whether the DNA precipitate dissolved after addition of chaotropic solution (5M GuSCN) | whether the DNA precipitate dissolved after addition of chaotropic solution (5M LiBr) | whether the DNA precipitate dissolved after addition of chaotropic solution (5M LiCl) | whether the DNA precipitate dissolved after addition of chaotropic solution (5M LiI) | whether the DNA precipitate dissolved after addition of chaotropic solution (5M NaBr) | whether the DNA precipitate dissolved after addition of chaotropic solution (5M NaI) | whether the DNA precipitate dissolved after addition of chaotropic solution (5M NaSCN)
1 | CCCCCCCCCCCC[N+](C)(C)C.[Br-] [DTAB, dodecyltrimethylammonium bromide] | R | R | R | R | R | R | IR | R
2 | CCCCCCCCCCCC[N+](C)(C)C.[Cl-] [DTACl, dodecyltrimethylammonium chloride] | R | R | R | R | R | R | R | R
